Data on seven sequences can be found in publication PMC9949715.

For series [1], the system named is CgYB (Y-box factor), truncated (Crassostrea gigas). The series can be described thus: EMSA. To be noted: poly(dI:dC), EMSA: LightShift kit binding buffer, 3 pmol probe, 4 ul protein at 1 mg/ml (20 ul), 30 min, 25 C, recombinant protein, protein details: N-terminal 6xHis (pET-28a-SUMO), label: 5' biotin.
The test system is the same in series [2]. The series is described as follows: competition with a labelled probe. To be noted: 10-fold excess unlabeled vs biotinylated g.-333C probe; EMSA: LightShift kit binding buffer, poly(dI:dC), 3 pmol probe, 4 ul protein at 1 mg/ml (20 ul), 30 min, 25 C; recombinant protein; protein details: N-terminal 6xHis (pET-28a-SUMO).
Series [3] deals with Y-box factor (endogenous) (Crassostrea gigas). The series can be described thus: pull-down, MS. To be noted: gill nuclear extract, Pull-down: 20 mM Tris-HCl, 4.5 mM EDTA, 60 mM NaCl, 10 mM HEPES, 5 mM CaCl2, 50 mM KCl, 9% sucrose, 12% glycerol, pH 7.5, room temperature, 15 min, protein in an extract, label: 5' biotin on strand 1.
Series [4] concerns CgSREBP, truncated (Crassostrea gigas). The series can be described thus: EMSA. To be noted: poly(dI:dC), EMSA: LightShift kit binding buffer, 3 pmol probe, 4 ul protein at 1 mg/ml (20 ul), 30 min, 25 C, recombinant protein, protein details: 6xHis (pET-28a vector), label: 5' biotin. (In general: In EMSA bound probe runs differently from free probe, usually more slowly.)
For series [5] the test system is unchanged. The series is described as follows: competition with a labelled probe. To be noted: 10-fold excess unlabeled probe; EMSA: LightShift kit binding buffer, poly(dI:dC), 3 pmol probe, 4 ul protein at 1 mg/ml (20 ul), 30 min, 25 C; recombinant protein; protein details: 6xHis (pET-28a vector).

For at least one entry, the source does not settle the construct or the ends of the probe. For some of these results: A negative result means that nothing was seen under these conditions. For some of these results: Results from cells or extracts need not show a direct contact. For some of these results: At least one verdict rests on a figure or table, not on a statement of the authors.

In the case of “AAGGAGTGACCATCCCTTGCA (double strand) [g.-333C EMSA probe]”, in series [1], the binding result was “binds”.
As for “AAGGAGTGACCATCCCTTGCA (double strand) [g.-333C unlabeled competitor]”, the binding result in series [2] is reported as “binds”.
For “AAGGAGTGACTATCCCTTGCA (double strand) [g.-333T EMSA probe]”, the binding result in series [1] is recorded as “no binding”.
Take “GACGTTTTGAAAGGAGTGACTATCCCTTGCAGAACTAGTCT (double strand) [g.-333T pull-down probe]”: the binding result in series [3] (not among proteins pulled by g.-333T) is reported as “no binding”.
With “GACGTTTTGAAAGGAGTGACCATCCCTTGCAGAACTAGTCT (double strand) [g.-333C pull-down probe]”, the binding result in series [3] is listed as “binds”.
“AGAATCGCGTGAAAA (double strand) [Scd promoter SREBP probe]”: the binding result in series [4] is listed as “binds”.
Turning to “AGAATCGCGTGAAAA (double strand) [Scd promoter SREBP unlabeled competitor]”, in series [5], the binding result is “binds”.
